Measured values: the supplement of paper PMC10849652
Some of the results follow. Residues, ends and D or L forms follow the SMILES beside them. *: point of attachment. Cbz = O=C(OCc1ccccc1)*

The chains behind the UniProt entries cited, without tags or fusion partners. Where a name states a change or a piece, a line headed by the entry shows the natural chain unless it says otherwise.
UniProt O75116: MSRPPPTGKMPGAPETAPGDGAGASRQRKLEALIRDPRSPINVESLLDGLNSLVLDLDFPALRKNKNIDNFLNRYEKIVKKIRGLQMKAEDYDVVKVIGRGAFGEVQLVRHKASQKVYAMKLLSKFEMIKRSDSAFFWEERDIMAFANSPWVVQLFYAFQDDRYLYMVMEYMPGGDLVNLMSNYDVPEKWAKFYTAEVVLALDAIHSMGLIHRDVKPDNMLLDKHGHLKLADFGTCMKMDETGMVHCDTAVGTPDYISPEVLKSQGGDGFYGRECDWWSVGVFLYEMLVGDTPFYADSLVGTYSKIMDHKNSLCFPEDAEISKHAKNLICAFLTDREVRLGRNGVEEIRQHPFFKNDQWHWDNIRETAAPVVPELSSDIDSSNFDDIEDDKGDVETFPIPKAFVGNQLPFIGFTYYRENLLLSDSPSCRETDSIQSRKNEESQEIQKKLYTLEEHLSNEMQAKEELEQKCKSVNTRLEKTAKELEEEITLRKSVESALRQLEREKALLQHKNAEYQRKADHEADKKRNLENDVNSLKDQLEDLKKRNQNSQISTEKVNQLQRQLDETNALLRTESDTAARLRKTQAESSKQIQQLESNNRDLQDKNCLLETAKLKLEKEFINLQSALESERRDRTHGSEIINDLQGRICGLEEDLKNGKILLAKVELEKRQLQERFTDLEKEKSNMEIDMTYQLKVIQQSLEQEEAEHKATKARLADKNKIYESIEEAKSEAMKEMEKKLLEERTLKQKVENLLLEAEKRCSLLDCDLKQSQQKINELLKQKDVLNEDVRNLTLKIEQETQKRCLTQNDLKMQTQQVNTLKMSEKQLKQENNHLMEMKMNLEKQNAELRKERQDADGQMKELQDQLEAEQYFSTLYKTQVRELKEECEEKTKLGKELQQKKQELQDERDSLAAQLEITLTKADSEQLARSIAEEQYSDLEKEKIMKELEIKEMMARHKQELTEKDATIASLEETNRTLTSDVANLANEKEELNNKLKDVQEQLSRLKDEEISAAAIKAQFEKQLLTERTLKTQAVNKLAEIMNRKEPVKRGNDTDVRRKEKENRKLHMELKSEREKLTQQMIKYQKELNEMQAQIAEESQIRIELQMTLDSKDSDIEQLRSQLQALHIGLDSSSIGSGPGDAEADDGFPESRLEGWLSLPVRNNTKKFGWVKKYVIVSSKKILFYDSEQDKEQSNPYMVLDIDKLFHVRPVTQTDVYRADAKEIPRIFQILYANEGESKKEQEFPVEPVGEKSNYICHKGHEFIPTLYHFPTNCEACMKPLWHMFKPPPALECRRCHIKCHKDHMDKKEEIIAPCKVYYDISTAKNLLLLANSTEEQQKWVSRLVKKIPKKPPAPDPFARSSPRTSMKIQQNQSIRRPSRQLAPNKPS
UniProt Q9H6T3, whole entry, looked up: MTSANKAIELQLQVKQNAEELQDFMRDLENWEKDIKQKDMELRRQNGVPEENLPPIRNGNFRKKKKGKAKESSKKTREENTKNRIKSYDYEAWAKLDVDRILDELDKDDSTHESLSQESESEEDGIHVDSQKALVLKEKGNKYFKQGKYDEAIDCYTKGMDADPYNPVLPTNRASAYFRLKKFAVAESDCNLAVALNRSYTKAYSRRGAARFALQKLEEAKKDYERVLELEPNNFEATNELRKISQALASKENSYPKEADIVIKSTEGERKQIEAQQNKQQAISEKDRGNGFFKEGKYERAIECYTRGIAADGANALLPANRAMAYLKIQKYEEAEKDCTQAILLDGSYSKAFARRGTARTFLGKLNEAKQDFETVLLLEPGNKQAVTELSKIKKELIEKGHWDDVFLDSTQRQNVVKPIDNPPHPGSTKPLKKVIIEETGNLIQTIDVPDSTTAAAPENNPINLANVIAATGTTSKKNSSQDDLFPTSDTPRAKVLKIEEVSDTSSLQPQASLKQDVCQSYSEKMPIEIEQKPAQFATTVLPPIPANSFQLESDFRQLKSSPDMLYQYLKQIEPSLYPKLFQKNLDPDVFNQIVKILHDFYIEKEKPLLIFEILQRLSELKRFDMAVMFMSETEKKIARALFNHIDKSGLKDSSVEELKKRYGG
UniProt Q92901: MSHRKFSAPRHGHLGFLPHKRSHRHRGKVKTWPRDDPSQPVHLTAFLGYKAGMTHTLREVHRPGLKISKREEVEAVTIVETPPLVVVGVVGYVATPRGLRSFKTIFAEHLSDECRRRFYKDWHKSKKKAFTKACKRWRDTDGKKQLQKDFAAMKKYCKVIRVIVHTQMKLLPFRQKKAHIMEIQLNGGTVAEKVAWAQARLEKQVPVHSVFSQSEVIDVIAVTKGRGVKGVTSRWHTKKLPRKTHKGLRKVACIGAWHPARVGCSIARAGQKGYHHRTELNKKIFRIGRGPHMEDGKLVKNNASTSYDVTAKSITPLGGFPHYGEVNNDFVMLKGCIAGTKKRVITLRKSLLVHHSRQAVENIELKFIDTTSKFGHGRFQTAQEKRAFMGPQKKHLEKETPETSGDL
UniProt P13489: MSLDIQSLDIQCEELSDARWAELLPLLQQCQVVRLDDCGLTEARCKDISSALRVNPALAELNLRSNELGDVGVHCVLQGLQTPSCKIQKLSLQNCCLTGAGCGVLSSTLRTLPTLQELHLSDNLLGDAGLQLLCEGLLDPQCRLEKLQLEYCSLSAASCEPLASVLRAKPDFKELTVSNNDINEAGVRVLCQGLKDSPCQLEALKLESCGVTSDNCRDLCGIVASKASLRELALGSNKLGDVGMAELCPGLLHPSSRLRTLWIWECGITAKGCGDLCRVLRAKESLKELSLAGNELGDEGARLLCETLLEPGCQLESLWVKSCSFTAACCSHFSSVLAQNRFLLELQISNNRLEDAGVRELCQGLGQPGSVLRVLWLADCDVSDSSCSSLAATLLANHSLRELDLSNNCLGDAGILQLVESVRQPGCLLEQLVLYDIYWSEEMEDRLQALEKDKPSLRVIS
UniProt Q9BUL9: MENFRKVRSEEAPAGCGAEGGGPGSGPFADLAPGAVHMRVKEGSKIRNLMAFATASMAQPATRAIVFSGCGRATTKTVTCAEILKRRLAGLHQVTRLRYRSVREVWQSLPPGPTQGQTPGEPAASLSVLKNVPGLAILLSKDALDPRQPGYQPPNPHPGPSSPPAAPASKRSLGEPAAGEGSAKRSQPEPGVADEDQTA
UniProt P78345: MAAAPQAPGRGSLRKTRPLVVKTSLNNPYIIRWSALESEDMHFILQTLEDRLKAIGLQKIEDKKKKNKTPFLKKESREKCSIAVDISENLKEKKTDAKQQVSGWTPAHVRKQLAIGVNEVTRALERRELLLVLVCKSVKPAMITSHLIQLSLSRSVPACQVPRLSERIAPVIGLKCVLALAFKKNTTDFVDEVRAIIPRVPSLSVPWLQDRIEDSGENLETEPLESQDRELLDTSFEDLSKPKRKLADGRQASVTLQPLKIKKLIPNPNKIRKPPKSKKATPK

Assays:
Assay in all cases: log2 fold change, soluble protein after heating vs DMSO (PISA); higher = thermal stabilisation; K562 cells, 10 uM, 30 min; active = over 0.2 and 3.5 SD of the protein, either way, in both replicates (recomputed)
erlotinib = compound: C#Cc1cccc(Nc2ncnc3cc(OCCOC)c(OCCOC)cc23)c1 [erlotinib]
Procedure, shortened: (§1)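 Soluble protein was defined as the supernatant after 21,000xg for 90 min. It came from K562 cells at 2×10^6 cells/mL given 10 μM compound for 30 min, heated in aliquots for 3 min across 48°C-58°C, pooled, and extracted in PBS with 0.5% NP-40 at 4°C, and was quantified by TMTpro 16plex LC-MS/MS with equalised channel sums. Thermal stability against control samples, from duplicates, is reported as log2 fold change.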

[1] = compound: C/C(=N\NC(=O)C1=CC(=CC=C1)S(=O)(=O)N2CCOCC2)/C3=C(C=CC(=C3)Cl)O
Procedure, shortened: as §1

[2] = compound: C1=CC(=C(C=C1Cl)C2=NC3=NC=CN=C3C(=N2)NC4=CC=NC=C4)F
Procedure, shortened: as §1

[3] = compound: C1=CC(=CC=C1C2=NC3=C(N2)C=C(C=C3)C(=O)N)OC4=CC=C(C=C4)Cl
Procedure, shortened: as §1

[4] = compound: C1=CC2=C(C=CC(=C2)/C=C\3/C(=O)NC(=NCC4=CC=CS4)S3)N=C1
Procedure, shortened: as §1

[5] = compound: C1=CC2=NC=CN=C2C=C1/C=C/3\C(=O)NC(=O)S3
Procedure, shortened: as §1

[6] = compound: C1=CC=C(C=C1)C2=NC(=C(N2)C3=CC=NC=C3)C4=CC(=C(C=C4)Cl)O
Procedure, shortened: as §1

[7] = compound: C1=CC=C2C(=C1)C3=NNC4=CC=CC(=C43)C2=O
Procedure, shortened: as §1

[8] = compound: C1CCN(C1)C(=O)NC2=CC=CC(=C2)NC3=NC=C(C(=N3)NCCC4=CN=CN4)Br
Procedure, shortened: as §1

[9] = compound: C1CN(CCC1(CC2=CC=C(C=C2)Cl)N)C3=NC=NC4=C3C=CN4
Procedure, shortened: as §1

IRAK-1-4 Inhibitor I = compound: C1COCCN1CCN2C3=CC=CC=C3N=C2NC(=O)C4=CC(=CC=C4)[N+](=O)[O-] [IRAK-1-4 Inhibitor I]
Procedure, shortened: as §1

ibrutinib = compound: C=CC(=O)N1CCC[C@@H](n2nc(-c3ccc(Oc4ccccc4)cc3)c3c(N)ncnc32)C1 [ibrutinib]
Procedure, shortened: as §1

[10] = compound: CC(=O)c1cnc2ccc(-c3cc(Cl)c(O)c(Cl)c3)nc2c1N[C@H]1CC[C@H](CN(C)C)CC1
Procedure, shortened: as §1

ralimetinib = compound: CC(C)(C)Cn1c(N)nc2ccc(-c3[nH]c(C(C)(C)C)nc3-c3ccc(F)cc3)nc21 [ralimetinib]
Procedure, shortened: as §1

[11] = compound: CC(C)(O)CC(=O)NCCn1ccc2ncnc(Nc3ccc(Oc4cccc(C(F)(F)F)c4)c(Cl)c3)c21
Procedure, shortened: as §1

[12] = compound: CC(C)C1=C2N=C(C=C(N2N=C1)NCC3=CC=CC=C3)NCCCCCCN
Procedure, shortened: as §1

[13] = compound: CC(C)C[C@@H](C=O)NC(=O)[C@H](CC(C)C)NC(=O)[C@H](CC(C)C)NC(=O)OCc1ccccc1
Procedure, shortened: as §1

pinometostat = compound: CC(C)N(C[C@H]1O[C@@H](n2cnc3c(N)ncnc32)[C@H](O)[C@@H]1O)[C@H]1C[C@@H](CCc2nc3cc(C(C)(C)C)ccc3[nH]2)C1 [pinometostat]
Procedure, shortened: as §1

[14] = compound: CC1=C(C(CC(=O)N1)C2=CC=C(C=C2)C(F)(F)F)C(=O)NC3=C(C=C4C(=C3)C=NN4)F
Procedure, shortened: as §1

[15] = compound: CC1=C(C2=C(C=C1)C(=O)C3=CC=CC=C3N2CCCN)C
Procedure, shortened: as §1

| Target | log2 fold change (erlotinib) | log2 fold change [1] | log2 fold change [2] | log2 fold change [3] | log2 fold change [4] | log2 fold change [5] | log2 fold change [6] | log2 fold change [7] | log2 fold change [8] | log2 fold change [9] | log2 fold change (IRAK-1-4 Inhibitor I) | log2 fold change (ibrutinib) | log2 fold change [10] | log2 fold change (ralimetinib) | log2 fold change [11] | log2 fold change [12] | log2 fold change [13] | log2 fold change (pinometostat) | log2 fold change [14] | log2 fold change [15] |
| --- | --- | --- | --- | --- | --- | --- | --- | --- | --- | --- | --- | --- | --- | --- | --- | --- | --- | --- | --- | --- |
| RPLP0 (UniProt P05388) | inactive: -0.363 | inactive: -0.335 | inactive: -1.03 | inactive: 0.046 | inactive: -0.215 | inactive: -0.006 | inactive: -0.106 | inactive: -0.004 | inactive: -0.002 | inactive: -0.33 | inactive: -0.212 | inactive: 0.089 | inactive: 0.204 | inactive: 0.2 | inactive: 0.053 | inactive: 0.022 | inactive: 0.156 | inactive: 0.523 | inactive: 0.082 | inactive: -0.886 |
| RPL36A (UniProt P83881) | inactive: -0.15 | inactive: -0.46 | inactive: -0.515 | inactive: 0.06 | inactive: -0.133 | inactive: -0.011 | inactive: -0.104 | inactive: -0.117 | inactive: 0.086 | inactive: -0.323 | inactive: -0.203 | inactive: 0.032 | inactive: 0.123 | inactive: 0.163 | inactive: 0.363 | inactive: 0.027 | inactive: 0.203 | inactive: 0.343 | inactive: 0.02 | inactive: -0.533 |
| RPL7 (UniProt P18124) | inactive: -0.479 | inactive: -0.385 | inactive: -1.17 | inactive: 0.085 | inactive: -0.194 | inactive: -0.057 | inactive: -0.111 | inactive: 0.057 | inactive: 0.026 | inactive: -0.433 | inactive: -0.287 | inactive: 0.1 | inactive: 0.293 | inactive: 0.256 | inactive: 0.105 | inactive: -0.015 | inactive: 0.188 | inactive: 0.581 | inactive: 0.095 | inactive: -1.03 |
| ROCK2 (UniProt O75116) | inactive: 0.05 | inactive: 0.02 | inactive: 0.031 | inactive: 0.003 | inactive: 0.158 | inactive: 0.126 | inactive: -0.009 | inactive: -0.071 | inactive: 0.036 | inactive: 0.099 | inactive: -0.037 | inactive: -0.052 | inactive: -0.137 | inactive: 0.032 | inactive: -0.049 | inactive: -0.138 | inactive: 0.034 | inactive: 0.021 | active: 0.29 | inactive: 0 |
| RPAP3 (UniProt Q9H6T3) | inactive: 0.018 | inactive: 0.099 | inactive: -0.03 | inactive: -0.002 | inactive: 0.033 | inactive: -0.026 | inactive: -0.038 | inactive: 0.008 | inactive: -0.039 | inactive: -0.122 | inactive: -0.065 | inactive: -0.019 | inactive: -0.021 | inactive: 0.029 | inactive: -0.035 | inactive: -0.045 | inactive: 0.081 | inactive: 0.041 | inactive: -0.041 | inactive: 0.033 |
| RPL3L (UniProt Q92901) | inactive: -0.376 | inactive: -0.28 | inactive: -1.34 | inactive: 0.118 | inactive: -0.185 | inactive: -0.048 | inactive: -0.179 | inactive: 0.009 | inactive: 0.042 | inactive: -0.515 | inactive: -0.208 | inactive: 0.052 | inactive: 0.258 | inactive: 0.118 | inactive: 0.084 | inactive: -0.043 | inactive: 0.088 | inactive: 0.561 | inactive: 0.079 | inactive: -1.06 |
| RPSA (UniProt P08865) | inactive: -0.039 | inactive: -0.063 | inactive: -0.045 | inactive: 0.012 | inactive: 0.009 | inactive: -0.002 | inactive: -0.046 | inactive: -0.013 | inactive: 0.084 | inactive: -0.098 | inactive: -0.032 | inactive: 0.004 | inactive: -0.018 | inactive: 0.026 | inactive: 0.018 | inactive: -0.017 | inactive: 0.025 | inactive: 0.019 | inactive: -0.006 | inactive: -0.046 |
| RPL22 (UniProt P35268) | inactive: -0.107 | inactive: -0.111 | inactive: -0.419 | inactive: 0.024 | inactive: -0.027 | inactive: -0.037 | inactive: -0.11 | inactive: 0.009 | inactive: 0.046 | inactive: -0.126 | inactive: -0.083 | inactive: 0.023 | inactive: -0.011 | inactive: 0.275 | inactive: 0.064 | inactive: 0.032 | inactive: 0.149 | inactive: 0.258 | inactive: 0.012 | inactive: -0.524 |
| RNH1 (UniProt P13489) | inactive: -0.015 | inactive: 0.072 | inactive: 0.089 | inactive: 0.002 | inactive: 0.028 | inactive: 0.051 | inactive: 0.018 | inactive: -0.009 | inactive: -0.013 | inactive: -0.003 | inactive: 0.066 | inactive: -0.013 | inactive: 0.043 | inactive: -0.003 | inactive: -0.062 | inactive: -0.119 | inactive: -0.029 | inactive: -0.022 | inactive: 0.094 | inactive: -0.01 |
| RPL4 (UniProt P36578) | inactive: -0.474 | inactive: -0.345 | inactive: -1.09 | inactive: 0.084 | inactive: -0.215 | inactive: -0.064 | inactive: -0.029 | inactive: 0.041 | inactive: -0.008 | inactive: -0.483 | inactive: -0.264 | inactive: 0.081 | inactive: 0.276 | inactive: 0.319 | inactive: 0.025 | inactive: -0.047 | inactive: 0.155 | inactive: 0.549 | inactive: 0.086 | inactive: -1.09 |
| RPL7A (UniProt P62424) | inactive: -0.432 | inactive: -0.391 | inactive: -1.13 | inactive: 0.056 | inactive: -0.27 | inactive: -0.016 | inactive: -0.049 | inactive: 0.019 | inactive: 0.036 | inactive: -0.325 | inactive: -0.318 | inactive: 0.082 | inactive: 0.288 | inactive: 0.268 | inactive: 0.111 | inactive: 0.037 | inactive: 0.222 | inactive: 0.534 | inactive: 0.124 | inactive: -0.997 |
| RPP25 (UniProt Q9BUL9) | inactive: -0.024 | inactive: -0.055 | inactive: -0.006 | inactive: 0.024 | inactive: 0.005 | inactive: -0.079 | inactive: 0.03 | inactive: -0.044 | inactive: -0.046 | inactive: -0.037 | inactive: 0.015 | inactive: 0.021 | inactive: 0.023 | inactive: 0.051 | inactive: 0.006 | inactive: -0.057 | inactive: -0.039 | inactive: 0.132 | inactive: 0.086 | inactive: -0.073 |
| RPL27A (UniProt P46776) | inactive: -0.248 | inactive: -0.352 | inactive: -0.798 | inactive: -0.03 | inactive: -0.237 | inactive: -0.011 | inactive: -0.13 | inactive: -0.041 | inactive: 0.105 | inactive: -0.214 | inactive: -0.147 | inactive: 0.073 | inactive: 0.175 | inactive: 0.157 | inactive: 0.034 | inactive: 0 | inactive: 0.073 | inactive: 0.445 | inactive: 0.13 | inactive: -0.677 |
| RPP38 (UniProt P78345) | inactive: 0.002 | inactive: -0.024 | inactive: -0.053 | inactive: 0.078 | inactive: -0.036 | inactive: 0.023 | inactive: 0 | inactive: -0.011 | inactive: 0.029 | inactive: 0.027 | inactive: -0.065 | inactive: -0.013 | inactive: 0.014 | inactive: 0.003 | inactive: -0.047 | inactive: 0.013 | inactive: 0.006 | inactive: 0.011 | inactive: -0.013 | inactive: -0.064 |
| RPL21 (UniProt P46778) | inactive: -0.413 | inactive: -0.38 | inactive: -1.19 | inactive: 0.073 | inactive: -0.196 | inactive: -0.066 | inactive: -0.105 | inactive: -0.012 | inactive: 0.101 | inactive: -0.331 | inactive: -0.295 | inactive: 0.111 | inactive: 0.244 | inactive: 0.223 | inactive: 0.16 | inactive: -0.019 | inactive: 0.185 | inactive: 0.614 | inactive: 0.093 | inactive: -0.829 |
| RPS17 (UniProt P08708) | inactive: -0.145 | inactive: -0.083 | inactive: -0.285 | inactive: 0.06 | inactive: -0.057 | inactive: -0.024 | inactive: -0.024 | inactive: -0.017 | inactive: 0.023 | inactive: -0.099 | inactive: -0.095 | inactive: 0.057 | inactive: 0.035 | inactive: 0.1 | inactive: 0.084 | inactive: -0.013 | inactive: 0.08 | inactive: 0.077 | inactive: 0.006 | inactive: -0.41 |

In another format: results already given.
Target	log2 fold change (erlotinib)	log2 fold change [1]	log2 fold change [2]	log2 fold change [3]	log2 fold change [4]	log2 fold change [5]	log2 fold change [6]	log2 fold change [7]	log2 fold change [8]	log2 fold change [9]	log2 fold change (IRAK-1-4 Inhibitor I)	log2 fold change (ibrutinib)	log2 fold change [10]	log2 fold change (ralimetinib)	log2 fold change [11]	log2 fold change [12]	log2 fold change [13]	log2 fold change (pinometostat)	log2 fold change [14]	log2 fold change [15]
RPL36A (UniProt P83881)	inactive: -0.15	inactive: -0.46	inactive: -0.515	inactive: 0.06	inactive: -0.133	inactive: -0.011	inactive: -0.104	inactive: -0.117	inactive: 0.086	inactive: -0.323	inactive: -0.203	inactive: 0.032	inactive: 0.123	inactive: 0.163	inactive: 0.363	inactive: 0.027	inactive: 0.203	inactive: 0.343	inactive: 0.02	inactive: -0.533
RPL7 (UniProt P18124)	inactive: -0.479	inactive: -0.385	inactive: -1.17	inactive: 0.085	inactive: -0.194	inactive: -0.057	inactive: -0.111	inactive: 0.057	inactive: 0.026	inactive: -0.433	inactive: -0.287	inactive: 0.1	inactive: 0.293	inactive: 0.256	inactive: 0.105	inactive: -0.015	inactive: 0.188	inactive: 0.581	inactive: 0.095	inactive: -1.03
ROCK2 (UniProt O75116)	inactive: 0.05	inactive: 0.02	inactive: 0.031	inactive: 0.003	inactive: 0.158	inactive: 0.126	inactive: -0.009	inactive: -0.071	inactive: 0.036	inactive: 0.099	inactive: -0.037	inactive: -0.052	inactive: -0.137	inactive: 0.032	inactive: -0.049	inactive: -0.138	inactive: 0.034	inactive: 0.021	active: 0.29	inactive: 0
RPAP3 (UniProt Q9H6T3)	inactive: 0.018	inactive: 0.099	inactive: -0.03	inactive: -0.002	inactive: 0.033	inactive: -0.026	inactive: -0.038	inactive: 0.008	inactive: -0.039	inactive: -0.122	inactive: -0.065	inactive: -0.019	inactive: -0.021	inactive: 0.029	inactive: -0.035	inactive: -0.045	inactive: 0.081	inactive: 0.041	inactive: -0.041	inactive: 0.033
